Source: article doi:10.1101/630897
Read-outs that look alike come from different tables or passages of the source. No constants are given. Whether binding was seen depends on the method and setting. Binding seen in cells or lysates may run through a third protein. Some results given as binding are weak or reduced against the parent protein; the word gives no strength. Tags and fused reporters may be left off the sequences shown.

Protein sequences, listed by entry. Tags and fused reporters are not part of them. Residues count along the entry.
UniProt Q6ZQ08: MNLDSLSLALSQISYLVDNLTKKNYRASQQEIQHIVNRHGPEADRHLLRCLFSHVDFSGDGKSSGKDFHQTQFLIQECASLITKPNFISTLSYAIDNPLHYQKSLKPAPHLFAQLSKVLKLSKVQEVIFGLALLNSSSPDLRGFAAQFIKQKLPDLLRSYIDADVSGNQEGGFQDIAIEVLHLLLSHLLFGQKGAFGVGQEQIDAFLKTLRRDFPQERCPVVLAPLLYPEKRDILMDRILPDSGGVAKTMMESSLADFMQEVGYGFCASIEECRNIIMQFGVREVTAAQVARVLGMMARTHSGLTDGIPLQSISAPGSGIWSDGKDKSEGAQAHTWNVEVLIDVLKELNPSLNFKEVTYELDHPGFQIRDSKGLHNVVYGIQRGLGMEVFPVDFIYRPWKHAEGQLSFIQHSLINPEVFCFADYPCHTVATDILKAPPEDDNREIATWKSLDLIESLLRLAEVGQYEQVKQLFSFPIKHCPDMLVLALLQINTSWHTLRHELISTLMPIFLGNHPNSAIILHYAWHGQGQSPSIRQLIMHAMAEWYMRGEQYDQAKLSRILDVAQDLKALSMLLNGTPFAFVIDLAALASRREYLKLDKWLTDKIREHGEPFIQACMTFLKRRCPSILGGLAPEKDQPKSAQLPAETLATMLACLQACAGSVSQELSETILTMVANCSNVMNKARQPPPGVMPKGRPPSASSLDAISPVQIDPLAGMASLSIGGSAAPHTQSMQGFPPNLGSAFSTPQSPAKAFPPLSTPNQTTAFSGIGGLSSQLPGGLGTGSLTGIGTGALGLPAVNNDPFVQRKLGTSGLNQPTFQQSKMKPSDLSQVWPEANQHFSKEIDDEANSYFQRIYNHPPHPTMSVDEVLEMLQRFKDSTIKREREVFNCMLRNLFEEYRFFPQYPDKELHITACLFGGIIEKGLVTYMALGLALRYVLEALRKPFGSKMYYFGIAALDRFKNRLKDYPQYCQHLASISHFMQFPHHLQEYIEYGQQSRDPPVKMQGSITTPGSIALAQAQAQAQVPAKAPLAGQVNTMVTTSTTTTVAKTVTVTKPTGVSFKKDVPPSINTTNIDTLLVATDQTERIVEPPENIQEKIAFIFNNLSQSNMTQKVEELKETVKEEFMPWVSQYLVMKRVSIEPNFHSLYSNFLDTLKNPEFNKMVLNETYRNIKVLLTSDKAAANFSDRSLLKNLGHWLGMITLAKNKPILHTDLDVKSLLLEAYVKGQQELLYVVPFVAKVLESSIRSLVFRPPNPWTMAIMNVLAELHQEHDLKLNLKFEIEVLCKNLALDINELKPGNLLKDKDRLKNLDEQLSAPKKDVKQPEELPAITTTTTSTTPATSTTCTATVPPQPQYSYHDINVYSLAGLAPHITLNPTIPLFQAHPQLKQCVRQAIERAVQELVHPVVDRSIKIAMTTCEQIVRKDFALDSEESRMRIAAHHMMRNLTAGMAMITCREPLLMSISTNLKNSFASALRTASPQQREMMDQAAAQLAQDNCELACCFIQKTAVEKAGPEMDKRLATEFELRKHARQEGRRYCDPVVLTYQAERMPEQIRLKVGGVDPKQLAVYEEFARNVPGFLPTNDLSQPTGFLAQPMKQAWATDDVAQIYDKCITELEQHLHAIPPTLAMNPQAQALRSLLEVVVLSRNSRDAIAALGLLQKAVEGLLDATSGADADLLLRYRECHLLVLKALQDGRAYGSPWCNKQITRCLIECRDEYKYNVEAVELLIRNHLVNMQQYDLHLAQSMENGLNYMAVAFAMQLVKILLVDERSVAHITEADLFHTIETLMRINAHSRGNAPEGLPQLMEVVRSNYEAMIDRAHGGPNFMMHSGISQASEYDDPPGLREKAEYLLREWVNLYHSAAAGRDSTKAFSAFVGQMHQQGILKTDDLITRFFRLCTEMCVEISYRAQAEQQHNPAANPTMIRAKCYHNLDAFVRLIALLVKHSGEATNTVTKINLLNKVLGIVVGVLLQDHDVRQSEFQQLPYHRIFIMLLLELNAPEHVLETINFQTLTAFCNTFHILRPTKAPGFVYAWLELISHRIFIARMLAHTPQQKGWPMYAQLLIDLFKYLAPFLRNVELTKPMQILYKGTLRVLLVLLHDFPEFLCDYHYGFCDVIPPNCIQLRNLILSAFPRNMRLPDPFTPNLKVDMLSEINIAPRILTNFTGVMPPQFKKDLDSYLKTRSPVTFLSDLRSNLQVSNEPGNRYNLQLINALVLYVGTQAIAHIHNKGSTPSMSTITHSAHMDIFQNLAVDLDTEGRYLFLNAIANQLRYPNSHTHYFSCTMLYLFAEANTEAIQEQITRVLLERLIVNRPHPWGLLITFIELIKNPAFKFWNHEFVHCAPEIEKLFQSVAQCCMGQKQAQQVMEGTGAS
UniProt A5YKK6, residues 1407-2376: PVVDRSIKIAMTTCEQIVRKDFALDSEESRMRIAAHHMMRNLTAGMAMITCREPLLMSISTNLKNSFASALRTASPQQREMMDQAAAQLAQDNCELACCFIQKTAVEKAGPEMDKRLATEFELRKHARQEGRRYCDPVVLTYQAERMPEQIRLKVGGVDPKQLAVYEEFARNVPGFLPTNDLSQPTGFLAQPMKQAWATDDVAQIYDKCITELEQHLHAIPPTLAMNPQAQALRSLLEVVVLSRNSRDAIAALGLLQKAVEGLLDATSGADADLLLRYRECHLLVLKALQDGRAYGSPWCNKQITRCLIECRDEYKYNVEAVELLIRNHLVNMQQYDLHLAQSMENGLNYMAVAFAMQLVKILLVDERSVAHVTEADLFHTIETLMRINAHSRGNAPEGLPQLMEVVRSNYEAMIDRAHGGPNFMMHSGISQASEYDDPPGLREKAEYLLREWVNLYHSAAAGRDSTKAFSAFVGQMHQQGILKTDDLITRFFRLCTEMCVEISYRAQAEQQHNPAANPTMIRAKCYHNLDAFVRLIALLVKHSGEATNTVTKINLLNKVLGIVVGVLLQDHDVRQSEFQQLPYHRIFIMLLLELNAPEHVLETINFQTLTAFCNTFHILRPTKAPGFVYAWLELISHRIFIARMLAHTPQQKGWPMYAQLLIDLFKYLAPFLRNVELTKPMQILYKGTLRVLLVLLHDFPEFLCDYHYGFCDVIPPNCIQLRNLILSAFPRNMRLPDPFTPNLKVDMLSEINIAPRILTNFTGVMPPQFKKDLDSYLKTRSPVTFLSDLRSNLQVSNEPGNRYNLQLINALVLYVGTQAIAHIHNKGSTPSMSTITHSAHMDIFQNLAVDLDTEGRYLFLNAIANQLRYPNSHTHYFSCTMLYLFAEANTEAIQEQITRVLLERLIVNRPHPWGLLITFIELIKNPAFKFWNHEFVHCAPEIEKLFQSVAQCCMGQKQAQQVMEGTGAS

Key:
Experiment in all cases: co-IP
[1] = biological target: T1, CLOCK-HA (UniProt O08785)
T1 sequence: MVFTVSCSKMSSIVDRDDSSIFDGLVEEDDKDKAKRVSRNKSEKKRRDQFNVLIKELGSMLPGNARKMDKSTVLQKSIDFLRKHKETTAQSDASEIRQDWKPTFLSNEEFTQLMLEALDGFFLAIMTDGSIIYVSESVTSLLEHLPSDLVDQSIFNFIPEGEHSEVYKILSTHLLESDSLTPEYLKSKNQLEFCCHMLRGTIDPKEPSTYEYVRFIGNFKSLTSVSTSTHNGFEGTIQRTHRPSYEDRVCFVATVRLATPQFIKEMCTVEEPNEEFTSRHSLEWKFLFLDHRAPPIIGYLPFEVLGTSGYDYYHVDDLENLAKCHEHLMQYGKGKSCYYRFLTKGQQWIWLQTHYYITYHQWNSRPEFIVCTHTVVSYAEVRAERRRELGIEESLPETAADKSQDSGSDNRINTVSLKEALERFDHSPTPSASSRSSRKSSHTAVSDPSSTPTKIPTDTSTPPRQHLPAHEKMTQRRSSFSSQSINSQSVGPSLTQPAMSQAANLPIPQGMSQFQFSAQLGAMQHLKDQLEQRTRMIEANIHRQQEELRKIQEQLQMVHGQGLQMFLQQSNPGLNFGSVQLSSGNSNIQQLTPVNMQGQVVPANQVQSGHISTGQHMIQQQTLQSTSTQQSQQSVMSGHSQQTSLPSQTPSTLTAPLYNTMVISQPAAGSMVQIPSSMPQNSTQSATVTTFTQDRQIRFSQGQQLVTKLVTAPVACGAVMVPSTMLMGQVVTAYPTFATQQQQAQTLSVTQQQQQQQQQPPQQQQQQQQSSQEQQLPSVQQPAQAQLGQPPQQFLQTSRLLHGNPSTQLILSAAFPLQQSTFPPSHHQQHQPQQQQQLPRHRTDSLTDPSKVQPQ

[2] = biological target: T1, CLOCK-HA; remark: listed apart in the source
[3] = biological target: T2, Flag-tagged CLOCK (mouse) (UniProt O08785)
T2 sequence: T1 sequence

Question: How did the binding [1] turn out when “CNOT1 (endogenous, mouse liver) (from UniProt Q6ZQ08 1-2375)” was run?
Answer: no binding (condition: at ZT16)

Question: What about the binding [2] of the same substance?
Answer: binds

Question: “HA-tagged CNOT1-C (amino acids 1407-2376) (from UniProt A5YKK6 1407-2376) (domain or fragment)” was tested. Which binding [3] did it give?
Answer: binds
